Source: US20140271478A1 (University of California, published 2014)
Substitutions are numbered along the chain they refer to. Results are given in words; binding and its absence hold for the method and conditions named. Some results given as binding are weak or reduced against the parent protein; the word gives no strength.

By UniProt entry, the sequences of proteins in these tests, tags left out. Where a name states a change or a piece, a line headed by the entry shows the natural chain unless it says otherwise.
UniProt P26012: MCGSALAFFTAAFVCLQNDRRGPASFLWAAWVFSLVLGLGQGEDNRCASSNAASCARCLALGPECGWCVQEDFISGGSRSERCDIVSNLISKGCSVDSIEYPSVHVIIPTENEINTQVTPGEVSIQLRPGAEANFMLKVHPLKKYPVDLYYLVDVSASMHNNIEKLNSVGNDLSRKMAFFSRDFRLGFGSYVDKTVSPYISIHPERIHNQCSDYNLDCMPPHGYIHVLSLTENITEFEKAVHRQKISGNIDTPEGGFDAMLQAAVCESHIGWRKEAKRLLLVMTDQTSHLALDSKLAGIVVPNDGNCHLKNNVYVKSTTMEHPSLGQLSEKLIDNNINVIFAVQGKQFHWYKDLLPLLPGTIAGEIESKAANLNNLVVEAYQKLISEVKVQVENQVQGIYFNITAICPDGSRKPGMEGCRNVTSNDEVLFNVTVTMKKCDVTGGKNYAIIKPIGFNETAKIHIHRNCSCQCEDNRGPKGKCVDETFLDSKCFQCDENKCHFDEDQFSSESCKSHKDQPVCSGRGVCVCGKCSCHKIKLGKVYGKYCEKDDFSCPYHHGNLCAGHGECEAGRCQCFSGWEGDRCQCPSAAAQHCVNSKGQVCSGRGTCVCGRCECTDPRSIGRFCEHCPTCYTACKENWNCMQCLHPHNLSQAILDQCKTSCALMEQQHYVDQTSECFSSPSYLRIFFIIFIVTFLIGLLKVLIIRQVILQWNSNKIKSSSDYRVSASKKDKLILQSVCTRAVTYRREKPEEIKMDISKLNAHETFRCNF
UniProt P06756: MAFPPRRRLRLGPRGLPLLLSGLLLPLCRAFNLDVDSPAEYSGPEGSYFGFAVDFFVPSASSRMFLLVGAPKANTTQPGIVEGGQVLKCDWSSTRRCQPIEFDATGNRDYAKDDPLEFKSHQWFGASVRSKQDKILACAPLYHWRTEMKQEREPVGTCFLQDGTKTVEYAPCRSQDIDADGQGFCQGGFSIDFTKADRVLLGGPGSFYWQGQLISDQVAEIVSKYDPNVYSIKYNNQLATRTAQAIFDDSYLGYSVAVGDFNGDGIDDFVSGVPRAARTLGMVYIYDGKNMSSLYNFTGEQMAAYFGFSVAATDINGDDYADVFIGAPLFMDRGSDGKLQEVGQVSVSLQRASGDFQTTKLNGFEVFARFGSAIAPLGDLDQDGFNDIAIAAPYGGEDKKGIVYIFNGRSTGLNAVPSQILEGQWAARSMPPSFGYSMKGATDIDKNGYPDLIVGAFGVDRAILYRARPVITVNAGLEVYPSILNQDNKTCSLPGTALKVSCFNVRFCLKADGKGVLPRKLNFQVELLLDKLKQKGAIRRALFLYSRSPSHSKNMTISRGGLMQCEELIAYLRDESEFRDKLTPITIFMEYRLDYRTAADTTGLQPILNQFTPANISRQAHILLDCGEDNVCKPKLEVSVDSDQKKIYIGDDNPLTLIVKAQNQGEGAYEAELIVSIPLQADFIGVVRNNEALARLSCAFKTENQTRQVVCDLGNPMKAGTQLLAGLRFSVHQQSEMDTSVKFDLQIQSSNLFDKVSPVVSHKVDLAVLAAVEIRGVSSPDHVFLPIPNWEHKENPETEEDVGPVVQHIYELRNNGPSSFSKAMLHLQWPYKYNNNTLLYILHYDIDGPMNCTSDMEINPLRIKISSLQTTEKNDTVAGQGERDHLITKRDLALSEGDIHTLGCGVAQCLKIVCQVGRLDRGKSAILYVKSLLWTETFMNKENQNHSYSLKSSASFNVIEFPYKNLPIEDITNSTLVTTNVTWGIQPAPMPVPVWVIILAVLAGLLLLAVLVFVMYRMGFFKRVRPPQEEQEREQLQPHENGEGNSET

Tests used:
[1] = molecular target: human integrin β8 in tissue of ITGB8 BAC transgenic mice (human) (UniProt P26012); experiment: immunostaining of formalin fixed paraffin embedded tissue
[2] = molecular target: human integrin αβ8 (αvβ8) expressed on cells (human) (UniProt P06756); experiment: immunostaining of formalin fixed cells
[3] = molecular target: human integrin αβ8 (αvβ8) expressed on cells (human) (UniProt P06756); experiment: cell surface staining, flow cytometry
[4] = molecular target: human integrin β8 in tissue of ITGB8 BAC transgenic mice (human) (UniProt P26012); experiment: immunostaining, 4F1 at 50-100 ug/ml
[5] = molecular target: human integrin αβ8 (αvβ8) expressed on cells (human) (UniProt P06756); experiment: immunostaining, 4F1 at 50-100 ug/ml
[6] = molecular target: human integrin β8 in tissue of ITGB8 BAC transgenic mice (human) (UniProt P26012); experiment: immunostaining of formalin fixed tissue
[7] = molecular target: human integrin β8 in tissue of ITGB8 BAC transgenic mice (human) (UniProt P26012); experiment: immunostaining, 6B9 at 25 ug/ml
[8] = molecular target: human integrin β8 in tissue of ITGB8 BAC transgenic mice (human) (UniProt P26012); experiment: immunostaining of formalin fixed paraffin embedded mouse brain
[9] = molecular target: human integrin αβ8 (αvβ8) expressed on cells (human) (UniProt P06756); experiment: immunostaining of formalin fixed paraffin embedded human lung
[10] = molecular target: human integrin β8 in tissue of ITGB8 BAC transgenic mice (human) (UniProt P26012); experiment: immunostaining of formalin fixed paraffin embedded mouse lung
[11] = molecular target: secreted αβ8 (αvβ8) (UniProt P06756); experiment: immunoprecipitation

Measured: binding

B1: 4F1 antibody (antibody, V domains shown)
VH: QVQLQQSGAELVRPGTSVKVSCKASGYAFTNYLIEWVKQRPGQGLEWIGVINPGTGGTNYNKKFKVKATLTADKSSSTAYMQLGGLTFDDSAVYFCAREGNARTYYYAMDYWGQGTSVTVSS
VL: DIEMTQTPASLSASVGETVTITCRASENIYSYLVWYQQKQGKSPQVLVYNAKTLAEGVPSRFSGSGSGTQFSLKINSLQPEDFGSYYCQHHNGTPYTFGGGTKLEIKR
notes: Hybridoma antibody; also called hybridoma clone 4F1
binds: [1] | [2] | [3] | [4] | [5] | [6]

B2: 6B9 antibody (antibody, V domains shown)
VH: QVQLQQSGAELVRPGTSVKVSCKASGYAFTDYLIEWVKQRPGQGLEWIGVINPETGGTNYNAKFKGKATLTADKSSSSAYMQLSSLTSGDSAVYFCAREAGNYIYAMDYWGQGTSVTVSS
VL: B1 VL with E3Q, T7S, E27V, V46L, Y49H, N92H
notes: Hybridoma antibody; also called hybridoma clone 6B9
binds: [1] | [7] | [8] | [6]

B3: recombinant monoclonal rabbit IgG derived from the variable domains of clone 4F1 (antibody, V domains shown)
VH: B1 VH
VL: B1 VL
binds: [9] | [1] | [10]

B4: 11E8 antibody (antibody, V domains shown)
VH: EVQLQQSGPELMKTGASVKISCKATGYTFSSYWIEWVKQRPGHGLEWIGDILPGSGTTNYNEKFKGRATVTADRSSNTAYMQLSSLTYGDSAVYYCATWGWDTYWDQGTSVTVSS
VL: DIVMTQSPSSLSASLGDRVTISCSASQGISNYLNWYQQKPDGTVKLLIYYTSSLHSGVPSRFSGSGSGTDYSLTISNLEPEDIATYYCQQYSNLPYTFGGGTKLEIKR
notes: Mouse hybridoma antibody
binds: [11]
